Experimental data taken from doi:10.1101/2020.02.11.943159 (bioRxiv, 2020).
These are yes or no findings as the source states them, for the method shown. In cells and extracts the contact can be indirect. Some results given as binding are weak or reduced against the parent protein; the word gives no strength.

Sequences of proteins named here, by UniProt entry; tags and fusion partners are left off. A change or cut given only in a name is not applied to a line headed by its entry.
UniProt Q92576: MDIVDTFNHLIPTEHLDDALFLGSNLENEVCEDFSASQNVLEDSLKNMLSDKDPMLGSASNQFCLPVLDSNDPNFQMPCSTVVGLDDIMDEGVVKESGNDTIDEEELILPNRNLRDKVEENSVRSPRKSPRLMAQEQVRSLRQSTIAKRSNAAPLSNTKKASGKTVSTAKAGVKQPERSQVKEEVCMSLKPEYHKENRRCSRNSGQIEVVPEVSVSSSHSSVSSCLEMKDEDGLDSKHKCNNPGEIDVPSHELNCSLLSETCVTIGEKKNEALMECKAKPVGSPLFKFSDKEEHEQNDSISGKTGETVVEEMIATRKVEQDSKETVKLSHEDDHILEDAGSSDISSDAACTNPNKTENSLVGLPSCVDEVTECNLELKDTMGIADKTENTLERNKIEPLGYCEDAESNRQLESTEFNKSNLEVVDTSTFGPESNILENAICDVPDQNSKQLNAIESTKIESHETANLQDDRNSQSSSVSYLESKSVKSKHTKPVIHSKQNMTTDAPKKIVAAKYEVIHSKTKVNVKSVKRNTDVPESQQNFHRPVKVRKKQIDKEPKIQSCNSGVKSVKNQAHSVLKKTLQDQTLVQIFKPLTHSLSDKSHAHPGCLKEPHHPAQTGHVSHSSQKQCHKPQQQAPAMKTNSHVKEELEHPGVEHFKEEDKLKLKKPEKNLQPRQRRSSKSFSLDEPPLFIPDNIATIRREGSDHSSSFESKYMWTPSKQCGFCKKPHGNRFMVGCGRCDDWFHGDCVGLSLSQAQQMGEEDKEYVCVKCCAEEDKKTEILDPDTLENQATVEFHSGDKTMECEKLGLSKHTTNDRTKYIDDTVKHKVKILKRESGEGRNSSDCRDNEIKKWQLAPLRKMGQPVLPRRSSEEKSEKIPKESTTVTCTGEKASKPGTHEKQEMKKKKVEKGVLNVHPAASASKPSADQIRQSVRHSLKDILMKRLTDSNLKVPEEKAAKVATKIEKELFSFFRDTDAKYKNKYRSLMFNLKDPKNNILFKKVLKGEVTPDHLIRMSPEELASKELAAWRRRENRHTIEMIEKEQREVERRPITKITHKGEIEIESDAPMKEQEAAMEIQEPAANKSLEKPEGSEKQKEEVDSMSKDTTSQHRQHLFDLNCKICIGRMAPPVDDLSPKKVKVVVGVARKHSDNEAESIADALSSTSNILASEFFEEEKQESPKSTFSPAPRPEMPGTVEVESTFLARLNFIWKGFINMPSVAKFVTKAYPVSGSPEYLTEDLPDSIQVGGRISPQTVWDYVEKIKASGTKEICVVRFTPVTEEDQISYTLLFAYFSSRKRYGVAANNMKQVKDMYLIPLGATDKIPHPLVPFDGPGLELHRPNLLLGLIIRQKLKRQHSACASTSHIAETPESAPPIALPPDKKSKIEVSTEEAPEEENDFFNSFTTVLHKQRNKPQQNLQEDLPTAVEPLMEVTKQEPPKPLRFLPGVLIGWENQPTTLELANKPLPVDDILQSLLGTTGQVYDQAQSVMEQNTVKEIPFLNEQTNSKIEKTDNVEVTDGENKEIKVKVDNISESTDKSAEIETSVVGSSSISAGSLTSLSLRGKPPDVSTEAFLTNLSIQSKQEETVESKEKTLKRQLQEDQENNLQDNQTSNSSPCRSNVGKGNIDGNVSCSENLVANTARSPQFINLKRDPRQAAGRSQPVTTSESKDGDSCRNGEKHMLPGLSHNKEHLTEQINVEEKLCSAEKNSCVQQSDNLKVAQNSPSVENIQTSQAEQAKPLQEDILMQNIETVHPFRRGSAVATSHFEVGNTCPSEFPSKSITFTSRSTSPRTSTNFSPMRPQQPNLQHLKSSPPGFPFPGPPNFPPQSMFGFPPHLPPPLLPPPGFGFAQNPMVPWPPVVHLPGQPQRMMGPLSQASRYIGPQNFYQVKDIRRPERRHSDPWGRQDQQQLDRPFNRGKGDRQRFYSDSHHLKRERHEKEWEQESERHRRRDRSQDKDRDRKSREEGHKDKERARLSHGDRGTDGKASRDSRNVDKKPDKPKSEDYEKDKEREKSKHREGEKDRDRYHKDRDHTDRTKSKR
UniProt Q9Y5B9: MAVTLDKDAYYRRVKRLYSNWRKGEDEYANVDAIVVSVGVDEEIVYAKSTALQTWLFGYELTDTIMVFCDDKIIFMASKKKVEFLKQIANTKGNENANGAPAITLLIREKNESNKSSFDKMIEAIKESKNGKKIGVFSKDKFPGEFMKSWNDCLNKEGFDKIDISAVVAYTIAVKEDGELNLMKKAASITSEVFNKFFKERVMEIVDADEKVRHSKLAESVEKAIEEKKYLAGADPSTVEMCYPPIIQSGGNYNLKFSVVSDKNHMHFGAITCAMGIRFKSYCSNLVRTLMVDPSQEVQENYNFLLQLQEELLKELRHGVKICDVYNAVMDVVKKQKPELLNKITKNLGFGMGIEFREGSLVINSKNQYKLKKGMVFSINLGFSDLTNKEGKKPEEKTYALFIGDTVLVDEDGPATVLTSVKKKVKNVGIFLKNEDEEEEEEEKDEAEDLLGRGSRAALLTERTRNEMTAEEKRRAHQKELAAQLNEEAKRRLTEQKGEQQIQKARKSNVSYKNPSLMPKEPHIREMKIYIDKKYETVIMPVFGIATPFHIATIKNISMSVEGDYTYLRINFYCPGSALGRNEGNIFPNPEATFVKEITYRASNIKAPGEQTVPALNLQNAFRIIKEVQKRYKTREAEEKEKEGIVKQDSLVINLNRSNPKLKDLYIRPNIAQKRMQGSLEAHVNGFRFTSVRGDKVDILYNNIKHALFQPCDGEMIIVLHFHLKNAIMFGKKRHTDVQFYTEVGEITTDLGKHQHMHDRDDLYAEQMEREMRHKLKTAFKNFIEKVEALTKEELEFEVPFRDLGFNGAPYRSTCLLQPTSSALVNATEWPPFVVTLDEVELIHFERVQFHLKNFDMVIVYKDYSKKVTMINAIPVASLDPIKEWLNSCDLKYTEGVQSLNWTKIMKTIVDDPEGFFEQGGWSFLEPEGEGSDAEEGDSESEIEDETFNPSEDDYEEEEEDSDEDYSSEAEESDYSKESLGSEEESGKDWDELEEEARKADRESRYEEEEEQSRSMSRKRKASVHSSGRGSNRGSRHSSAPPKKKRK
UniProt Q08945: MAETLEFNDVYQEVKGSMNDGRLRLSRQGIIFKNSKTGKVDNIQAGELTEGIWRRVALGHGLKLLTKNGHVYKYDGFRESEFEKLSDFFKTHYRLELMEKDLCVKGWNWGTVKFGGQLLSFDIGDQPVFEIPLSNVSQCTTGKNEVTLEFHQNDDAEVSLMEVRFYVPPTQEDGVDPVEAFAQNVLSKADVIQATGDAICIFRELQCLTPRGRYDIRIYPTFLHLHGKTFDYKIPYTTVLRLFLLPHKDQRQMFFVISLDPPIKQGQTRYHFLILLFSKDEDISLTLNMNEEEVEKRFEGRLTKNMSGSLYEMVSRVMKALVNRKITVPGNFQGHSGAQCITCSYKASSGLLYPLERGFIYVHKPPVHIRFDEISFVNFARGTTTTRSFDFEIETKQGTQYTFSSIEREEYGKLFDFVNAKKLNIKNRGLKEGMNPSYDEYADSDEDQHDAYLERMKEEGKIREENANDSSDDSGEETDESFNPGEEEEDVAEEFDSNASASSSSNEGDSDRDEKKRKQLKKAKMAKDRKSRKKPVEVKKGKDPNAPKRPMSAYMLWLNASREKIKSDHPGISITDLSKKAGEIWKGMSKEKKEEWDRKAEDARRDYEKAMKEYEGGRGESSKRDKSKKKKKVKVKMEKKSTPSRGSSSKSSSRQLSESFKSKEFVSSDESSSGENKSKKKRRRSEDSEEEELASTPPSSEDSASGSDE

Biological target: PHF3-GFP (endogenous PHF3 tagged with GFP) (human (endogenous in HEK293T)) (UniProt Q92576)
Experiment: co-IP

- binding: binds
Substance: FACT complex (SPT16 and SSRP1) (from UniProt Q9Y5B9;Q08945)
